{
  "source": "patent US8299301B2",
  "about": "(priority 2007, dated 2012)",
  "type_in_all_cases": "in vivo",
  "key": {"Uromyces appendiculatus": {"test_system": "Uromyces appendiculatus", "experiment": "Uromyces test (bean) / protective", "details": "active compound concentration 100 ppm, evaluation 10 days after inoculation"}, "Puccinia recondite": {"test_system": "Puccinia recondite", "experiment": "Puccinia test (wheat) / protective", "details": "active compound concentration 1000 ppm, evaluation 10 days after inoculation", "method": "Puccinia Test (Wheat)/Protective\n(§1) To produce a suitable preparation of active compound, 1 part by weight of active compound is mixed with the stated amounts of solvent and emulsifier, and the concentrate is diluted with water to the desired concentration.\nTo test for protective activity, young plants are sprayed with the active compound preparation at the stated application rate. After the spray coating has dried on, the plants are sprayed with a conidia suspension of Puccinia recondite. The plants remain in an incubation cabin at 20° C. and 100% relative atmospheric humidity for 48 hours. The plants are then placed in a greenhouse at a temperature of about 20° C. and a relative atmospheric humidity of 80% to promote the development of rust pustules.\nEvaluation is carried out 10 days after the inoculation. 0% means an efficacy which corresponds to that of the control, whereas an efficacy of 100% means that no infection is observed."}, "[1]": {"test_system": "Erysiphe graminis f.sp. hordei", "experiment": "Erysiphe test (barley) / protective", "details": "active compound concentration 1000 ppm, evaluation 7 days after inoculation", "method": "Erysiphe Test (Barley)/Protective\nas §1\nTo test for protective activity, young plants are sprayed with the active compound preparation at the stated application rate. After the spray coating has dried on, the plants are dusted with spores of Erysiphe graminis f.sp. hordei. The plants are placed in a greenhouse at a temperature of about 20° C. and a relative atmospheric humidity of about 80% to promote the development of mildew pustules.\nEvaluation is carried out 7 days after the inoculation. 0% means an efficacy which corresponds to that of the control, whereas an efficacy of 100% means that no infection is observed."}, "Alternaria solani": {"test_system": "Alternaria solani", "experiment": "Alternaria test (tomato) / protective", "details": "active compound concentration 100 ppm, evaluation 3 days after inoculation"}, "Sphaerotheca fuliginea": {"test_system": "Sphaerotheca fuliginea", "experiment": "Sphaerotheca test (cucumber) / protective", "details": "active compound concentration 500 ppm, evaluation 7 days after inoculation", "method": "Sphaerotheca Test (Cucumber)/Protective [table] To produce a suitable preparation of active compound, 1 part by weight of active compound is mixed with the stated amounts of solvent and emulsifier, and the concentrate is diluted with water to the desired concentration. To test for protective activity, young cucumber plants are sprayed with the active compound preparation at the stated application rate. 1 day after the treatment, the plants are inoculated with a spore suspension of Sphaerotheca fuliginea."}},
  "note": "Some entries share one result that the patent states for a list of compounds. For some of these results: At least one compound was matched to its structure with a doubt left.",
  "data": [
    {"molecule": "CCN(C)C=Nc1cc(C(F)(F)F)c(Oc2cccc(C(C)C)c2)cc1C", "note": "[Compound 4, N-ethyl-N-methyl-N′-[4-(3-iso-propylphenoxy)-5-trifluoromethyl-2-methylphenyl]formamidine]", "values": [
      {"measurement": "efficacy", "setting": "Uromyces appendiculatus", "value": "≥ 70", "unit": "%"}
    ]},
    {"molecule": "Cc1cc(Oc2ccc(Cl)c(C(F)(F)F)c2)c(C(F)(F)F)cc1N=CN1CCCCC1", "note": "[Compound 7, N-piperidinyl-N′-[4-(3-trifluoromethyl-4-chlorophenoxy)-5-trifluoromethyl-2-methylphenyl]formamidine]", "values": [
      {"measurement": "efficacy", "setting": "Puccinia recondite", "value": "≥ 70", "unit": "%"},
      {"measurement": "efficacy", "setting": "[1]", "value": "≥ 70", "unit": "%"}
    ]},
    {"molecule": "CCN(C)C=Nc1cc(C(F)F)c(Oc2ccc(Cl)c(Cl)c2)cc1C", "note": "[Compound 10, N-ethyl-N-methyl-N′-[4-(3,4-dichlorophenoxy)-5-difluoromethyl-2-methylphenyl]formamidine]", "values": [
      {"measurement": "efficacy", "setting": "Uromyces appendiculatus", "value": "≥ 70", "unit": "%"}
    ]},
    {"molecule": "CCN(C)C=Nc1cc(C(F)(F)F)c(-c2ccc(C(C)(C)C)cc2)cc1C", "note": "[Compound 12]", "values": [
      {"measurement": "efficacy", "setting": "Alternaria solani", "value": "≥ 70", "unit": "%"},
      {"measurement": "efficacy", "setting": "Uromyces appendiculatus", "value": "≥ 70", "unit": "%"}
    ]},
    {"molecule": "Cc1cc(Oc2cccc(C(C)C)c2)c(C(F)F)cc1N=CN1CCCCC1", "note": "[Compound 14, N-piperidinyl-N'-[4-(3-iso-propylphenoxy)-5-difluoromethyl-2-methylphenyl]formamidine]", "values": [
      {"measurement": "efficacy", "setting": "Sphaerotheca fuliginea", "value": "≥ 70", "unit": "%"}
    ]}
  ]
}
